{"source": "patent US10947270B2", "about": "“Targeted prodrug cytosine deaminase fusion carrier and application thereof” (National Yang-Ming University, priority 2015, dated 2021)", "test_system": "U87MG, HUVEC and MCF-7 cells", "assay": "MTT cytotoxic test of EcCD series, statements for several cells", "assay_type": "cell-based, human", "conditions": "protein 50 nM treated with 5-FC", "description": "Relative cell viability was measured by MTT assay. The 50 nM EcCD series fusion protein is applied to U87MG, HUVEC and MCF-7 cells at 37° C. for 2 hours, after washing the unbound protein with PBS.", "note": "Some entries share one result that the patent states for a list of compounds."}
{"molecule": "EcCD_D314A: E. coli. cytosine deaminase (EcCD) mutant D314A, without target molecule (protein, EcCD_D314A, E. coli. cytosine deaminase (EcCD) mutant D314A, without target molecule) MSNNALQTIINARLPGEEGLWQIHLQDGKISAIDAQSGVMPITENSLDAEQGLVIPPFVEPHIHLDTTQTAGQPNWNQSGTLFEGIERWAERKALLTHDDVKQRAWQTLKWQIANGIQHVRTHVDVSDATLTALKAMLEVKQEVAPWIDLQIVAFPQEGILSYPNGEALLEEALRLRADVVGAIPHFEFTREYGVESLHKTFALAQKYDRLIDVHCDEIDDEQSRFVETVAALAHHEGMGARVTASHTTAMHSYNGAYTSRLFRLLKMSGINFVANPLVNIHLQGRFDTYPKRRGITRVKEMLESGINVCFGHDAVFDPWYPLGTANMLQVLHMGLHVCQLMGYGQINDGLNLITHHSARTLNLQDYGIAAGNSANLIILPAENGFDALRRQVPVRYSVRGGKVIASTQPAQTTVYLEQPEAIDYKRLEHHHHHH", "values": [{"measurement": "survival rate", "value": "higher than 75%"}]}
